{"source": "patent US5441982A", "about": "“Therapeutics for management of cocaine induced toxicity” (priority 1993, dated 1995)", "note": "At least one structure is not confirmed: it was looked up by name or label, or the drawing left a doubt."}
{"target": "NMDA receptor", "assay": "Competition binding, [^3 H]CGP 39653, mouse cortical membranes", "details": "14 nM [^3 H]CGP 39653, mean ± S.D. of three experiments, N.E. = no effect at 0.01 to 100 uM", "procedure": "Affinity of selected reference drugs for the NMDA receptor\nlabeled with [^3 H]CGP 39653 and the PCP receptor\nlabeled with [^3 H]MK-801, relatively to the effect of\nNOS inhibitors, in mouse cortical membranes.\nCompetition binding assays were carried out using 14 nM [^3 H]CGP 39653 and 2 nM [^3 H]MK-801. L-NAME and NO-Arg at a concentration range of 0.01 to 100 uM, each, had no effect (N.E.) on the binding of the two tritium labeled ligands. Data represents the mean ±S.D. of three experiments.", "units": {"Ki": "µM"}}
{"compound": "N[C@H](CC(=O)O)C(=O)O", "note": "[D-Aspartate]", "Ki": "0.72 ± 0.06"}
{"compound": "N[C@@H](CC(=O)O)C(=O)O", "note": "[L-Aspartate]", "Ki": "2.1 ± 0.25"}
{"compound": "N[C@@H](CCC(=O)O)C(=O)O", "note": "[L-Glutamate]", "Ki": "0.45 ± 0.04"}
